Results as given in the supplement of paper PMC10849652.
The list shows a part of the results.

Protein sequences, listed by entry. Tags and fused reporters are not part of them. Lines headed by an entry give the natural chain unless they say otherwise; changes in a name come on top.
UniProt Q7KZN9: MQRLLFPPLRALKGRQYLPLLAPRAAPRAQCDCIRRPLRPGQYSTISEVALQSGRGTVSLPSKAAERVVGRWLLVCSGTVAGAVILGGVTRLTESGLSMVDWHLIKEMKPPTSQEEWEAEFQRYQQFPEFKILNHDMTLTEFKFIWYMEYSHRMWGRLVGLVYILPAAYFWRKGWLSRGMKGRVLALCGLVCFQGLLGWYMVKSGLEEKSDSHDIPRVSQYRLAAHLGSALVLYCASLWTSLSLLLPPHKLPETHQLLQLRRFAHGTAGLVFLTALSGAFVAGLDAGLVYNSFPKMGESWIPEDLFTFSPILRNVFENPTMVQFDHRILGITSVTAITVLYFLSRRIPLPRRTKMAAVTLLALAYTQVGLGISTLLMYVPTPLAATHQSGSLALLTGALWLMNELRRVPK
UniProt Q9UIV1, whole entry, looked up: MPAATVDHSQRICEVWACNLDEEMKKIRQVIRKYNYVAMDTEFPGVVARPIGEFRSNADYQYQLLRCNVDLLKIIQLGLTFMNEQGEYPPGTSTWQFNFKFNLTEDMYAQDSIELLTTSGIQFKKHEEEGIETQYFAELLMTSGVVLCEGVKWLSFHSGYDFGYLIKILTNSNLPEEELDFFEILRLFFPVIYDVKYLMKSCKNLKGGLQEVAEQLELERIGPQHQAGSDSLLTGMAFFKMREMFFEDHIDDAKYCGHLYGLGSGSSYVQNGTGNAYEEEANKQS
UniProt Q5HYK3: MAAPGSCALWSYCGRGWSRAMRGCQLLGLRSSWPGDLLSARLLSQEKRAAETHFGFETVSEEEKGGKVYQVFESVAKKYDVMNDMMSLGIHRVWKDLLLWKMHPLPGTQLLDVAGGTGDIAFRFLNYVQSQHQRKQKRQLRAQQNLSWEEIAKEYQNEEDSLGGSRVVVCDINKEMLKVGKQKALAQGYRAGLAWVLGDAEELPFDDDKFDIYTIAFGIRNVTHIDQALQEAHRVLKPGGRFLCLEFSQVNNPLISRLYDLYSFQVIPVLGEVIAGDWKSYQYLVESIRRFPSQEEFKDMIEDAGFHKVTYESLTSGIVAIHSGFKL
UniProt Q9P2I0: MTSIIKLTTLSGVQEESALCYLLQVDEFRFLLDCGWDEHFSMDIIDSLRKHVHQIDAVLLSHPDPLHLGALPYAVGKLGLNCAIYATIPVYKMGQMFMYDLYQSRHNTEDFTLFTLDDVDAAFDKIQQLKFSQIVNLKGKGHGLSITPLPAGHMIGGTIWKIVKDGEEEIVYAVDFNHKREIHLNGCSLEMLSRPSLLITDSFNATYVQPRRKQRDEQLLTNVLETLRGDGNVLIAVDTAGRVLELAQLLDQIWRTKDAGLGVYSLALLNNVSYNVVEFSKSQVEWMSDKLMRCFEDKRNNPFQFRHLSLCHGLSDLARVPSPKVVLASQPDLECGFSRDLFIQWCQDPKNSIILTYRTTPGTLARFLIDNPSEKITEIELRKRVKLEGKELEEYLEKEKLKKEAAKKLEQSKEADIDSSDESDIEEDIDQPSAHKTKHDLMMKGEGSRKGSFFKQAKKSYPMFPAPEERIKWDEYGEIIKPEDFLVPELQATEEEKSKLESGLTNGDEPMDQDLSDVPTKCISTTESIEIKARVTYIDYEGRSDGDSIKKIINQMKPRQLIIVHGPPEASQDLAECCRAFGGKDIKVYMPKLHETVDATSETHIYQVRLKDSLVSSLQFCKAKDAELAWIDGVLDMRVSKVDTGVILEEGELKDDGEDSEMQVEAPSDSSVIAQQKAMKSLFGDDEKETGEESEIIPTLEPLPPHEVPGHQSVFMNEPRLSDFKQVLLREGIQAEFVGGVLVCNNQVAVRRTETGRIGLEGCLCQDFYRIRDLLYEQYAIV
UniProt O75175, whole entry, looked up: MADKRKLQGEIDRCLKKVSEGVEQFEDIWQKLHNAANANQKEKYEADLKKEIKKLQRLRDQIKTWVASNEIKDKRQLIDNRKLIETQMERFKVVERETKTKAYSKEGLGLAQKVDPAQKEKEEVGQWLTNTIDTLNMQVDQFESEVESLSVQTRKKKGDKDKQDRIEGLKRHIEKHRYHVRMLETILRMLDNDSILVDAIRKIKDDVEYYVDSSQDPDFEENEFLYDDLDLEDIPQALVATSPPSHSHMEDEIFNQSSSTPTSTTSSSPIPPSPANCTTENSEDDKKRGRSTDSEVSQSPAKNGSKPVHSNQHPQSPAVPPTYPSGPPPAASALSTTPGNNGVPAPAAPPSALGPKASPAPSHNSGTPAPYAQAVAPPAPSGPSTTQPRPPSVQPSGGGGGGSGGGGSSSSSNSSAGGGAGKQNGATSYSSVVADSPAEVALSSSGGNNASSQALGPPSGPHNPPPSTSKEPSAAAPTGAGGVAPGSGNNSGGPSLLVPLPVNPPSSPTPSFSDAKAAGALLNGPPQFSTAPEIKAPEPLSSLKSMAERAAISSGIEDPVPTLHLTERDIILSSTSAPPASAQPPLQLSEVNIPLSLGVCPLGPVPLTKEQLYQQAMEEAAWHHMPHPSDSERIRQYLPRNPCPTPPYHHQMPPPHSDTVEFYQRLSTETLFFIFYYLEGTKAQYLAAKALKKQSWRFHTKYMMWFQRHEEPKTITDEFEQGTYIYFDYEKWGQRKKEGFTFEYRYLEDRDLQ
UniProt Q9ULM6, whole entry, looked up: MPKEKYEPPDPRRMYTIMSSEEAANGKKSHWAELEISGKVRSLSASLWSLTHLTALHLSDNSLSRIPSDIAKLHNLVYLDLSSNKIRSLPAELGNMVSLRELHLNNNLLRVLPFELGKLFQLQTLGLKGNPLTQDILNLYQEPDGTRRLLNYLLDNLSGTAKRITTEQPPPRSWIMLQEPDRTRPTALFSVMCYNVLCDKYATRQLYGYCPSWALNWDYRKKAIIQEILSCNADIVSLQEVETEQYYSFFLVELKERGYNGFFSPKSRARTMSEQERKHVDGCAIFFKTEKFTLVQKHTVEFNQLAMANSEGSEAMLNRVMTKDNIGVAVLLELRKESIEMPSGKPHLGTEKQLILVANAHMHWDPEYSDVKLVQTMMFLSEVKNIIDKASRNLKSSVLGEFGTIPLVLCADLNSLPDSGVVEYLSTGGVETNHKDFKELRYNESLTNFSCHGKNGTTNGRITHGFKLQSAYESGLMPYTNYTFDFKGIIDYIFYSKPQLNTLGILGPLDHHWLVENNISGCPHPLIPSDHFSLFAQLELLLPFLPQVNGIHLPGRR
UniProt Q5JTJ3: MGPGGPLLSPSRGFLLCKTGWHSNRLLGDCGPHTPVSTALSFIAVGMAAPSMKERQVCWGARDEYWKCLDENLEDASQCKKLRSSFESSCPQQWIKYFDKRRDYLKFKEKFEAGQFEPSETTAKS
UniProt Q14019: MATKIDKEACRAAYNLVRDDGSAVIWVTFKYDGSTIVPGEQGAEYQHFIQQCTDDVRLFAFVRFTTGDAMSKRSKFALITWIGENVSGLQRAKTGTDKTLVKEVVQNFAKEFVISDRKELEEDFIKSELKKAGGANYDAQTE
UniProt Q99439: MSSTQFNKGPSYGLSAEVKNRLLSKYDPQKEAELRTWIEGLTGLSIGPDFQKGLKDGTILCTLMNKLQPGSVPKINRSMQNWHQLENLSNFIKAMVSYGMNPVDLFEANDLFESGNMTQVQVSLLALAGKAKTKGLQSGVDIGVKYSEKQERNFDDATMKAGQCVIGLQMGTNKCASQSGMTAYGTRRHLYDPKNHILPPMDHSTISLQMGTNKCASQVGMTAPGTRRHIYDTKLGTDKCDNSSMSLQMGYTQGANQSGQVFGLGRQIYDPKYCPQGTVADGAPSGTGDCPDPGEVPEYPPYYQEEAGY
UniProt Q92600, whole entry, looked up: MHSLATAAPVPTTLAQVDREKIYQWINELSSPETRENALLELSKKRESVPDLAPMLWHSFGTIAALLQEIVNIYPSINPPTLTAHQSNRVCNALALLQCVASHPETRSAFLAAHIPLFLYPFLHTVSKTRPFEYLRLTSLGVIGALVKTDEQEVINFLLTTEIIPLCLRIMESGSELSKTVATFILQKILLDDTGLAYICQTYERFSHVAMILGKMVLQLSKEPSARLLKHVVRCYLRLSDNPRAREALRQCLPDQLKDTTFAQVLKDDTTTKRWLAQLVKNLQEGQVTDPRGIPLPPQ
UniProt Q9H9Q2: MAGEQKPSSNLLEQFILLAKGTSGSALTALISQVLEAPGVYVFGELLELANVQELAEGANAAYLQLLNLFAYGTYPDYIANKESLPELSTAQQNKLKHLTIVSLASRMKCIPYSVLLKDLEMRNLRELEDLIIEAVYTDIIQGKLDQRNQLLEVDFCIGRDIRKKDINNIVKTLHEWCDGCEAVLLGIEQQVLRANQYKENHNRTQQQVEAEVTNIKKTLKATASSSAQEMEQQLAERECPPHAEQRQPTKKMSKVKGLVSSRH
UniProt Q5RI15: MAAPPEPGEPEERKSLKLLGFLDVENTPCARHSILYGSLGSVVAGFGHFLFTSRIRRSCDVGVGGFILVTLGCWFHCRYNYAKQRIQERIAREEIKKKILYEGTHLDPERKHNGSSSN
UniProt Q9Y2V7: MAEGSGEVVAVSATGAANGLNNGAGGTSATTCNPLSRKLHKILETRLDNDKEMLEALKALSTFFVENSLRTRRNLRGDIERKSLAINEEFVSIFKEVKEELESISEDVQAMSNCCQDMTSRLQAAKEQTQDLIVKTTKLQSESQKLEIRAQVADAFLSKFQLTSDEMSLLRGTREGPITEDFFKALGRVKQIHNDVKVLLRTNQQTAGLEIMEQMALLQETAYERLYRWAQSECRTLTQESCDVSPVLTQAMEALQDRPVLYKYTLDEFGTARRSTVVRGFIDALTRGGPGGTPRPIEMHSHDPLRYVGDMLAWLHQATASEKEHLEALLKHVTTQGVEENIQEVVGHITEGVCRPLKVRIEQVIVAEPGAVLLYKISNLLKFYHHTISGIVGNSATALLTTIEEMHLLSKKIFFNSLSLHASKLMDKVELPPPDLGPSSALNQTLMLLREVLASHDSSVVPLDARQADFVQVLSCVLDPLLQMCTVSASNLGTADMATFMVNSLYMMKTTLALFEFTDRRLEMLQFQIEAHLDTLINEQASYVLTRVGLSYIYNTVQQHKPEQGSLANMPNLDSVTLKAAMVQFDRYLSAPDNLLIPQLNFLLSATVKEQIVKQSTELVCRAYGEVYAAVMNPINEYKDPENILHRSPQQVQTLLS
UniProt Q6P4Q7: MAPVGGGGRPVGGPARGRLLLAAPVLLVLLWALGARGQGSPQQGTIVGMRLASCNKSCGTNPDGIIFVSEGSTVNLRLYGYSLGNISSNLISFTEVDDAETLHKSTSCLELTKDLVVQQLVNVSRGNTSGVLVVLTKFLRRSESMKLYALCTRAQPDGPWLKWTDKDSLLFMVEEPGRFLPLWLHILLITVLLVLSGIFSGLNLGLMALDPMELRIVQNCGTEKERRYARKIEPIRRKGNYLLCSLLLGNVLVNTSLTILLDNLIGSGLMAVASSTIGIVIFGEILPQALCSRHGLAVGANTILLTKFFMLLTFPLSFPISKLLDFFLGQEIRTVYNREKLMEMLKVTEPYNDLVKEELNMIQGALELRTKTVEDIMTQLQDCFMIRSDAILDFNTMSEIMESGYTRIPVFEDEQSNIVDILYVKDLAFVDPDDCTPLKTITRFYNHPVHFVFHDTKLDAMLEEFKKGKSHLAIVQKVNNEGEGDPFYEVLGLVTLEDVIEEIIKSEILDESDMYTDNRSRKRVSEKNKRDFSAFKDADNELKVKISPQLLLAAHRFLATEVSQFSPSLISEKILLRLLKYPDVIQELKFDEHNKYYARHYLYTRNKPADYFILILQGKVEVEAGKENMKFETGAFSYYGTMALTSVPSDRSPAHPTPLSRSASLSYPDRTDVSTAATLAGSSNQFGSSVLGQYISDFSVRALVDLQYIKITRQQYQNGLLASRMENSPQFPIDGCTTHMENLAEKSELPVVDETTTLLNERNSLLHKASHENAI
UniProt Q9Y6G5, whole entry, looked up: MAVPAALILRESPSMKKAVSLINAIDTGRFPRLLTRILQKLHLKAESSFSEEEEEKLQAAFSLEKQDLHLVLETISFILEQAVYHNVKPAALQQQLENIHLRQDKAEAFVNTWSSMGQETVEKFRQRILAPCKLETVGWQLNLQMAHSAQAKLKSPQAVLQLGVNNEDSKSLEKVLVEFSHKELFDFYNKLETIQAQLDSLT
UniProt O75208: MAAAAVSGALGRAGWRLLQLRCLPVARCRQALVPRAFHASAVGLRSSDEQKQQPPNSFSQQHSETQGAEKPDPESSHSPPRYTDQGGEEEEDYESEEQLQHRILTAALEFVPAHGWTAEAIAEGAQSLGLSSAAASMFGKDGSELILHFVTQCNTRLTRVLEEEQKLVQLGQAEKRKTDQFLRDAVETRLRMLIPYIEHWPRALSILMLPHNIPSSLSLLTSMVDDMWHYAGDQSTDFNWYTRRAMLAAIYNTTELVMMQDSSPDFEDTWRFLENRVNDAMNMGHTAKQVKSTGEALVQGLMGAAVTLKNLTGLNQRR

Assays:
Assay in all cases: log2 fold change, soluble protein after heating vs DMSO (PISA); higher = thermal stabilisation; K562 lysate, 10 uM; active = over 0.2 and 3.5 SD of the protein, either way, in both replicates (recomputed)
alvocidib = compound: CN1CC[C@H](c2c(O)cc(O)c3c(=O)cc(-c4ccccc4Cl)oc23)[C@H](O)C1 [alvocidib]
How it was run: (§1)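 Dounce homogenisation of K562 pellets in PBS pH 7.4 with 1 mM MgCl2 produced a crude extract, used at 1 mg/mL protein. Exposure to 10 μM compound lasted 30 min, and aliquots were then heated for 3 min across 48°C-58°C, pooled and brought to 0.5% NP-40 at 4°C. The supernatant after 21,000xg for 90 min was quantified by TMTpro 16plex LC-MS/MS with channel sums equalised. Duplicate values are given as log-two fold change in thermal stability relative to solvent controls.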

Tubastatin A = compound: CN1CCc2c(c3ccccc3n2Cc2ccc(C(=O)NO)cc2)C1 [Tubastatin A]
How it was run: as §1

[1] = compound: CNC(=O)C1=CC=CC=C1NC2=NC(=NC=C2Cl)NC3=C(C=C(C=C3)N4CCOCC4)OC
How it was run: as §1

defactinib = compound: CNC(=O)c1ccc(Nc2ncc(C(F)(F)F)c(NCc3nccnc3N(C)S(C)(=O)=O)n2)cc1 [defactinib]
How it was run: as §1

[2] = compound: CNc1nc(-c2ccc3c(N)n[nH]c3c2)cc(N2C[C@@H](C(=O)NC3CCCCC3)CC[C@H]2C)n1
How it was run: as §1

encorafenib = compound: COC(=O)N[C@@H](C)CNc1nccc(-c2cn(C(C)C)nc2-c2cc(Cl)cc(NS(C)(=O)=O)c2F)n1 [encorafenib]
How it was run: as §1

[3] = compound: COC(=O)[C@H](CCSC)NC(=O)C1=C(C=C(C=C1)NC[C@H](CS)N)C2=CC=CC=C2
How it was run: as §1

alisertib = compound: COc1cc(Nc2ncc3c(n2)-c2ccc(Cl)cc2C(c2c(F)cccc2OC)=NC3)ccc1C(=O)O [alisertib]
How it was run: as §1

[4] = compound: COc1cc2nc(-c3cc(F)ccc3O)nc(N[C@@H]3CNC[C@H]3C(C)(C)O)c2cc1OC
How it was run: as §1

gefitinib = compound: COc1cc2ncnc(Nc3ccc(F)c(Cl)c3)c2cc1OCCCN1CCOCC1 [gefitinib]
How it was run: as §1

lapatinib = compound: CS(=O)(=O)CCNCc1ccc(-c2ccc3ncnc(Nc4ccc(OCc5cccc(F)c5)c(Cl)c4)c3c2)o1 [lapatinib]
How it was run: as §1

pictilisib = compound: CS(=O)(=O)N1CCN(Cc2cc3nc(-c4cccc5[nH]ncc45)nc(N4CCOCC4)c3s2)CC1 [pictilisib]
How it was run: as §1

crizotinib = compound: C[C@@H](Oc1cc(-c2cnn(C3CCNCC3)c2)cnc1N)c1c(Cl)ccc(F)c1Cl [crizotinib]
How it was run: as §1

[5] = compound: C[C@H](C1=CC=C(C=C1)C(=O)NC2=C3C=CNC3=NC=C2)N
How it was run: as §1

duvelisib = compound: C[C@H](Nc1ncnc2nc[nH]c12)c1cc2cccc(Cl)c2c(=O)n1-c1ccccc1 [duvelisib]
How it was run: as §1

gandotinib = compound: Cc1cc(Nc2cc(CN3CCOCC3)c3nc(C)c(Cc4ccc(Cl)cc4F)n3n2)n[nH]1 [gandotinib]
How it was run: as §1

tozasertib = compound: Cc1cc(Nc2cc(N3CCN(C)CC3)nc(Sc3ccc(NC(=O)C4CC4)cc3)n2)n[nH]1 [tozasertib]
How it was run: as §1

doramapimod = compound: Cc1ccc(-n2nc(C(C)(C)C)cc2NC(=O)Nc2ccc(OCCN3CCOCC3)c3ccccc23)cc1 [doramapimod]
How it was run: as §1

bafetinib = compound: Cc1ccc(NC(=O)c2ccc(CN3CC[C@H](N(C)C)C3)c(C(F)(F)F)c2)cc1Nc1nccc(-c2cncnc2)n1 [bafetinib]
How it was run: as §1

[6] = compound: Cc1cccc(CC(=O)N2CCc3c2ccc(-c2cn(C)c4ncnc(N)c24)c3F)n1
How it was run: as §1

Measured: log2 fold change

COX15 (UniProt Q7KZN9)
inactive: alvocidib -0.088 | Tubastatin A 0.075 | [1] 0.014 | defactinib 0.042 | [2] 0.042 | encorafenib 0.005 | [3] -0.011 | alisertib 0.014 | [4] -0.005 | gefitinib 0.014 | lapatinib 0.063 | pictilisib -0.002 | crizotinib -0.087 | [5] -0.194 | duvelisib 0.005 | gandotinib 0.074 | tozasertib -0.014 | doramapimod -0.024 | bafetinib -0.031 | [6] 0.05

CNOT7 (UniProt Q9UIV1)
inactive: alvocidib 0.007 | Tubastatin A -0.04 | [1] 0.008 | defactinib 0.012 | [2] -0.016 | encorafenib -0.003 | [3] 0.034 | alisertib 0.004 | [4] 0.001 | gefitinib -0.016 | lapatinib 0.003 | pictilisib -0.031 | crizotinib 0.002 | [5] -0.017 | duvelisib 0.044 | gandotinib -0.084 | tozasertib -0.018 | doramapimod 0.025 | bafetinib -0.009 | [6] 0.012

COQ5 (UniProt Q5HYK3)
inactive: alvocidib -0.027 | Tubastatin A 0.025 | [1] 0.02 | defactinib -0.059 | [2] 0.081 | encorafenib 0.062 | [3] -0.017 | alisertib -0.027 | [4] 0.007 | gefitinib 0.039 | lapatinib 0.084 | pictilisib -0.011 | crizotinib -0.031 | [5] 0.036 | duvelisib -0.004 | gandotinib -0.005 | tozasertib -0.027 | doramapimod 0.008 | bafetinib -0.033 | [6] -0.01

CPSF2 (UniProt Q9P2I0)
inactive: alvocidib -0.027 | Tubastatin A -0.059 | [1] 0.029 | defactinib 0.033 | [2] -0.033 | encorafenib 0.009 | [3] 0.107 | alisertib -0.053 | [4] -0.02 | gefitinib -0.003 | lapatinib -0.008 | pictilisib -0.009 | crizotinib -0.011 | [5] 0.028 | duvelisib 0.009 | gandotinib -0.03 | tozasertib 0.001 | doramapimod -0.005 | bafetinib -0.121 | [6] 0.029

CNOT3 (UniProt O75175)
inactive: alvocidib 0.002 | Tubastatin A -0.02 | [1] 0.025 | defactinib -0.034 | [2] 0.055 | encorafenib 0.009 | [3] 0.058 | alisertib 0.028 | [4] 0.002 | gefitinib -0.02 | lapatinib -0.008 | pictilisib 0.004 | crizotinib 0.1 | [5] -0.046 | duvelisib 0.028 | gandotinib -0.029 | tozasertib -0.038 | doramapimod -0.035 | bafetinib -0.009 | [6] 0.048

CNOT6 (UniProt Q9ULM6)
inactive: alvocidib 0.016 | Tubastatin A -0.114 | [1] 0.024 | defactinib 0.034 | [2] -0.039 | encorafenib 0.01 | [3] 0.132 | alisertib -0.087 | [4] 0.177 | gefitinib -0.024 | lapatinib -0.144 | pictilisib -0.062 | crizotinib 0.008 | [5] -0.064 | duvelisib -0.009 | gandotinib -0.025 | tozasertib -0.072 | doramapimod 0.038 | bafetinib 0.015 | [6] -0.017

COA6 isoform 2 (UniProt Q5JTJ3)
inactive: alvocidib 0.012 | Tubastatin A 0.086 | [1] 0.014 | defactinib 0.041 | [2] 0.031 | encorafenib -0.113 | [3] 0.026 | alisertib -0.274 | [4] 0.01 | gefitinib 0.271 | lapatinib -0.032 | pictilisib -0.062 | crizotinib 0.091 | [5] -0.062 | duvelisib 0.044 | gandotinib -0.009 | tozasertib 0.075 | doramapimod -0.052 | bafetinib 0.52 | [6] -0.106

COTL1 (UniProt Q14019)
inactive: alvocidib 0.021 | Tubastatin A 0.004 | [1] -0.021 | defactinib -0.04 | [2] -0.008 | encorafenib -0.033 | [3] -0.029 | alisertib -0.009 | [4] -0.001 | gefitinib -0.002 | lapatinib 0.007 | pictilisib 0.016 | crizotinib 0.045 | [5] 0.245 | duvelisib -0.009 | gandotinib -0.062 | tozasertib 0.024 | doramapimod -0.044 | bafetinib 0.102 | [6] -0.122

CNN2 (UniProt Q99439)
inactive: alvocidib -0.037 | Tubastatin A -0.003 | [1] 0.003 | defactinib -0.041 | [2] 0.081 | encorafenib -0.006 | [3] -0.026 | alisertib -0.006 | [4] 0.007 | gefitinib 0 | lapatinib 0.009 | pictilisib 0.005 | crizotinib 0.045 | [5] -0.027 | duvelisib -0.011 | gandotinib 0.029 | tozasertib 0.025 | doramapimod 0.03 | bafetinib 0.047 | [6] 0.016

CNOT9 (UniProt Q92600)
inactive: alvocidib -0.02 | Tubastatin A -0.078 | [1] 0.007 | defactinib 0.007 | [2] -0.037 | encorafenib -0.002 | [3] 0 | alisertib 0.031 | [4] 0.016 | gefitinib -0.02 | lapatinib -0.005 | pictilisib -0.057 | crizotinib -0.038 | [5] -0.028 | duvelisib 0 | gandotinib -0.042 | tozasertib 0.037 | doramapimod -0.003 | bafetinib 0.019 | [6] 0.048

COPS7B isoform 3 (UniProt Q9H9Q2)
inactive: alvocidib -0.004 | Tubastatin A 0.036 | [1] -0.005 | defactinib -0.073 | [2] 0.005 | encorafenib -0.004 | [3] -0.005 | alisertib -0.002 | [4] 0 | gefitinib -0.07 | lapatinib 0.013 | pictilisib 0.028 | crizotinib 0.006 | [5] -0.03 | duvelisib 0.032 | gandotinib 0.008 | tozasertib -0.027 | doramapimod 0 | bafetinib 0.059 | [6] -0.01

COX20 isoform 2 (UniProt Q5RI15)
inactive: alvocidib 0.102 | Tubastatin A -0.012 | [1] 0.01 | defactinib -0.007 | [2] 0.06 | encorafenib -0.103 | [3] 0.022 | alisertib 0.001 | [4] -0.033 | gefitinib -0.009 | lapatinib 0.016 | pictilisib 0.186 | crizotinib 0.054 | duvelisib -0.007 | gandotinib -0.144 | tozasertib -0.053 | doramapimod -0.036 | bafetinib 0.144 | [6] -0.273
active: [5] 0.455

2 successive entries out of the list so far, quoted:
COTL1 (UniProt Q14019)
inactive: alvocidib 0.021 | Tubastatin A 0.004 | [1] -0.021 | defactinib -0.04 | [2] -0.008 | encorafenib -0.033 | [3] -0.029 | alisertib -0.009 | [4] -0.001 | gefitinib -0.002 | lapatinib 0.007 | pictilisib 0.016 | crizotinib 0.045 | [5] 0.245 | duvelisib -0.009 | gandotinib -0.062 | tozasertib 0.024 | doramapimod -0.044 | bafetinib 0.102 | [6] -0.122

CNN2 (UniProt Q99439)
inactive: alvocidib -0.037 | Tubastatin A -0.003 | [1] 0.003 | defactinib -0.041 | [2] 0.081 | encorafenib -0.006 | [3] -0.026 | alisertib -0.006 | [4] 0.007 | gefitinib 0 | lapatinib 0.009 | pictilisib 0.005 | crizotinib 0.045 | [5] -0.027 | duvelisib -0.011 | gandotinib 0.029 | tozasertib 0.025 | doramapimod 0.03 | bafetinib 0.047 | [6] 0.016

Next part:

COG6 (UniProt Q9Y2V7)
inactive: alvocidib 0.026 | Tubastatin A -0.062 | [1] 0.059 | defactinib -0.028 | [2] 0.059 | encorafenib -0.026 | [3] 0.034 | alisertib 0.016 | [4] -0.017 | gefitinib 0.006 | lapatinib 0.012 | pictilisib -0.019 | crizotinib -0.104 | [5] -0.137 | duvelisib 0.014 | gandotinib -0.115 | tozasertib -0.011 | doramapimod 0.037 | bafetinib -0.071 | [6] 0.142

CNNM4 (UniProt Q6P4Q7)
inactive: alvocidib 0.064 | Tubastatin A 0.013 | [1] 0.043 | defactinib -0.018 | [2] 0.029 | encorafenib 0.023 | [3] -0.047 | alisertib 0.029 | [4] -0.158 | gefitinib 0.181 | lapatinib 0.071 | pictilisib -0.045 | crizotinib 0.024 | [5] -0.107 | duvelisib 0.04 | gandotinib -0.218 | tozasertib 0.1 | doramapimod 0.007 | bafetinib -0.095 | [6] -0.064

COMMD10 (UniProt Q9Y6G5)
inactive: alvocidib 0.022 | Tubastatin A 0.065 | [1] -0.003 | defactinib 0.054 | [2] -0.023 | encorafenib 0.03 | [3] -0.107 | alisertib -0.007 | [4] -0.021 | gefitinib 0.062 | lapatinib 0.008 | pictilisib -0.03 | crizotinib 0.053 | [5] 0.031 | duvelisib 0.013 | gandotinib -0.073 | tozasertib 0.003 | doramapimod 0.043 | bafetinib 0.008 | [6] -0.06

COQ9 (UniProt O75208)
inactive: alvocidib 0.002 | Tubastatin A -0.041 | [1] -0.035 | defactinib 0.023 | [2] 0.136 | encorafenib -0.021 | [3] 0.024 | alisertib 0.026 | [4] 0.025 | gefitinib -0.012 | lapatinib -0.033 | pictilisib -0.021 | crizotinib 0.014 | [5] 0.055 | duvelisib -0.052 | gandotinib -0.12 | tozasertib 0.02 | doramapimod -0.055 | bafetinib 0.032 | [6] 0.019
